Reference: US20220162215A1, “COMPOSITIONS AND METHODS OF USING THE SAME FOR TREATMENT OF NEURODEGENERATIVE AND MITOCHONDRIAL DISEASE” (MITOKININ, INC., priority 2019, published 2022)
Some of these results come from one statement about several compounds together.

Columns and labels:
HeLa MKYP cells [1] = assay: Human mitophagy assay (HeLa MKYP, mtKeima FACS, FCCP/oligomycin); format: cell-based; conditions: summary statement referring to Tables 2 and 3
Protocol: (§1) Briefly, HeLa MKYP cells were plated at 10,000 cells/well in 96 well plates along with compounds at various concentrations. Following 16 hrs of incubation, cells were treated with 1 uM FCCP/oligomycin for 6 hours, then analyzed via FACS for the presence of mitochondria in lysosomes (as determined by an emissions spectrum shift from the pH-sensitive mtKeima tag). Examples are shown in FIG. 1 through FIG. 13 below.

HeLa MKYP cells [2] = assay: Toxicity / cell death measured by DAPI staining (take-up); format: cell-based; conditions: summary statement referring to Tables 2 and 3
Protocol: H2O2 treatment was performed as a control for cell death as measured by DAPI staining.
as §1, with “tag).” for “tag). Examples are shown in FIG. 1 through FIG. 13 below.”

In the case of Fc1cccc(CNc2ncnc3[nH]c(C(F)(F)F)cc23)c1Cl [Compound 23], the mitophagy (HeLa MKYP cells [1]) is reported as “greater than 80%” and the toxicity (HeLa MKYP cells [2]) is reported as “less than 5%”.

In the case of CC(Nc1ncnc2[nH]c(C(F)(F)F)cc12)c1ccccc1 (stereo not shown) [Compound 12], the mitophagy (HeLa MKYP cells [1]) is reported as “greater than 80%” and the toxicity (HeLa MKYP cells [2]) is reported as “less than 5%”.
